Screen size: about 360,000 compounds; about 7,500 (2.1%) were called active. The shares of active, inactive and inconclusive entries below differ from those in the screen. The call rests on the fitted dose curve; in most records, active means well fitted inhibition curve with a large enough effect; inconclusive means small, poorly fitted or top-dose-only effect, or effect the other way; inactive means flat fitted curve, though single readings scatter. A potency beside an inconclusive call is a rough fit, not a confirmed value.
assay: Nrf2 qHTS screen for inhibitors; settings: A549 ARE-Fluc reporter, luciferase luminescence, 18-24 h; activity change, negative = inhibition: at 46 µM (top of the series); further: nearly all actives have a fitted effect of over 60% in size
Method in brief: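 Cells were seeded and rested 2 h, then exposed to compounds for 18-24 h. CellTiter-Fluor was read first as a viability measure. BugLite was added 15 min before the final luminescent read of ARE-luciferase activity in A549 cells.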
On the % scale 0 is the no-effect control and ±100 the full control effect; potency means the concentration at half of the fitted maximal effect.

SMILES | Potency | activity change, negative = inhibition
COC(=O)Nc1ccc(S(=O)(=O)N2c3ccccc3CCC2C)cc1 (stereo not given) | inconclusive: 1.16 µM [falling, full curve, poor fit] | –
Cc1cc(Cl)ccc1NC(=O)CCC(=O)N/N=C/c1cc([N+](=O)[O-])ccc1O | – | inactive: 12.2%
CCCCn1c(=O)c2oc3ccccc3c2n(Cc2ccc(C)cc2)c1=O | inconclusive: 0.13 µM [activator, full curve, poor fit] | –
CCN(C(=O)COC(=O)c1c(C)c(-c2ccccc2)nc2ccccc12)C1CCS(=O)(=O)C1 (stereo not given) | inconclusive: 1.46 µM [falling, full curve, poor fit] | –
CCC(CO)Oc1cc(NCc2ccc(Cl)cc2Cl)c2ncn(C(C)C)c2c1 (stereo not given) | inconclusive: 18.4 µM [falling, partial curve] | –
Cn1c(=O)c2sccc2n(Cc2ccc(Br)cc2)c1=O | inconclusive: 13 µM [falling, partial curve, poor fit] | –
N#Cc1cccn1-c1nccc(-c2cccs2)n1 | inconclusive: 29.1 µM [activator, single point] | –
COc1ccc2ncc3c(-c4ccc(C)c(C)c4)nn(CC(=O)Nc4ccccc4)c3c2c1 | inconclusive: 8.2 µM [falling, partial curve, poor fit] | –
O=C(CSc1nc2ccccc2c(=O)n1CC1CCCO1)NCc1ccc2c(c1)OCO2 (stereo not given) | inconclusive: 0.206 µM [falling, full curve] | –
CCOC(=O)c1ccc(NC(=O)c2nc(SCc3ccc(F)cc3)ncc2Cl)cc1 | inconclusive: 32.6 µM [falling, single point] | –
CC(=O)c1cn(CC(=O)Nc2ccccc2F)c2ccccc12 | inconclusive: 29.1 µM [falling, single point] | –
CC1(C)CC(=O)C=C(C(=O)N2CCCC(C(=O)c3cccc(C(F)(F)F)c3)C2)O1 (stereo not given) | active: 9.2 µM | –
CCOc1cc(/C=C(\C#N)C(=O)Nc2ccccc2C(=O)O)ccc1OC(=O)c1ccc(C)cc1 | active: 2.06 µM | –
CC(OC(=O)c1ccc2ncsc2c1)C(=O)Nc1cccc(Cl)c1 (stereo not given) | inconclusive: 20.6 µM [falling, single point] | –
O=C(NCCc1ccccc1Cl)c1cc2ccccn2n1 | inconclusive: 6.51 µM [falling, single point] | –
CCOc1ccc(/C=N/NC(=O)C(O)c2ccccc2)c(O)c1 (stereo not given) | – | inactive: -4.29%
Cn1nc(C(F)(F)F)c(-c2ccc(F)cc2)c1NC(=O)Nc1ccc(F)cc1 | inconclusive: 29.1 µM [falling, single point] | –
Cc1ccc2nc(SCC(=O)OCc3ccccc3)nc(=O)n2c1 | – | inactive: -12.6%
CCOC(=O)c1c(NC(=O)CSc2nnc(C)s2)sc2c1CCCCC2 | inconclusive: 29.1 µM [falling, single point] | –
Cc1cc(C(=O)CN2C(=O)NC3(CCCCC3C)C2=O)c(C)n1Cc1cccs1 (stereo not given) | inconclusive: 1.64 µM [activator, full curve] | –
O=C(NCCO)c1ccc(-c2nnc(Nc3ccc(OC(F)(F)Cl)cc3)c3ccccc23)cc1 | inconclusive: 29.1 µM [falling, single point] | –
COc1ccc2c(-c3cc4ccc(OCc5ccc(F)cc5)cc4oc3=O)cc(=O)oc2c1 | inconclusive: 0.058 µM [falling, full curve, poor fit] | –

SMILES | Potency | activity change, negative = inhibition
O=C(NC(=S)N1CCN(c2ccc([N+](=O)[O-])cc2)CC1)c1ccccc1Cl | inconclusive: 29.1 µM [falling, single point] | –
Cc1ccc(C(=O)NCCn2cc(SCC(=O)Nc3cc(C)on3)c3ccccc32)cc1 | inconclusive: 29.1 µM [falling, partial curve, poor fit] | –
CC(=O)Oc1ccccc1/C=C/c1ccc2ccccc2[n+]1C | inconclusive: 20.6 µM [falling, partial curve, poor fit] | –
O=C(Cn1cc(S(=O)(=O)Cc2ccccc2F)c2ccccc21)Nc1ccc(F)c(Cl)c1 | inconclusive: 23.1 µM [falling, single point] | –
O=C(NC1C=CS(=O)(=O)C1)c1ccccc1 (stereo not given) | inconclusive: 18.4 µM [falling, single point] | –
COc1cccc(C(=O)Nc2nc(-c3nnn(-c4cccc(Cl)c4C)c3C)ns2)c1 | inconclusive: 29.1 µM [falling, single point] | –
Clc1ccccc1CNCc1ccncc1 | inconclusive: 5.17 µM [activator, partial curve, poor fit] | –
FC(F)(F)Oc1ccc(NC(=S)Nc2ccc(OC(F)(F)F)cc2)cc1 | inconclusive: 20.6 µM [falling, single point] | –
COc1ccc(C(=O)Nc2ccccc2C(=O)N/N=C/c2cccc3ccccc23)cc1 | inconclusive: 18.4 µM [falling, single point] | –
CCOC(=O)C1(CCCc2ccccc2)CCN(S(=O)(=O)N(C)C)CC1 | inconclusive: 14.6 µM [falling, partial curve] | –
CCOC(=O)COc1ccc(C)cc1-c1ccno1 | inconclusive: 5.17 µM [falling, partial curve] | –
CC(=O)c1ccc2c(c1)c1ccccc1n2CC(C)C | inconclusive: 32.6 µM [activator, partial curve, poor fit] | –
Cc1cccc(C)c1OCC(=O)N=Nc1c(O)[nH]c2ccc(Br)cc12 | inconclusive: 29.1 µM [falling, single point] | –
O=C1/C(=C\c2ccc(O)c(O)c2)SC(=S)N1Cc1ccccc1 | – | inactive: -25.1%
CN(C)c1ccc(Cl)cc1N | inconclusive: 23.1 µM [activator, partial curve, poor fit] | –
COc1ccc(N2CCN(C(=O)c3ccc(COc4ccc5c(C)cc(=O)oc5c4)cc3)CC2)cc1 | inconclusive: 5.8 µM [falling, full curve, poor fit] | –
O=C(Cc1ccccc1)N[C@@H](Cc1ccccc1)c1nc2ccccc2[nH]1 | inconclusive: 7.31 µM [falling, partial curve, poor fit] | –
Cc1nn(Cc2cccc(C(=O)NCC(C)C)c2)c(C)c1Br | inconclusive: 20.6 µM [falling, partial curve, poor fit] | –
Oc1ccc(-c2cnc3ccccc3n2)cc1 | inconclusive: 23.1 µM [activator, partial curve] | –
Cc1nnc(NC(=O)c2sc3nc(-c4cccs4)cc(C(F)(F)F)c3c2N)s1 | inconclusive: 29.1 µM [falling, partial curve, poor fit] | –
Cc1ccc(C)c(NC(=O)c2oc(=O)c3ccccc3c2-c2ccccc2)c1 | inconclusive: 29.1 µM [falling, single point] | –
COc1ccc2[nH]c3c(=O)n(/N=C/[C@H]4C(C)C=C(C)CC4C)c(=O)[nH]c3c2c1 (stereo not given in full) | inconclusive: 20.6 µM [falling, single point] | –

SMILES | Potency | activity change, negative = inhibition
CCCc1nn2c(=O)cc(COC(=O)c3ccc4c(c3)OCO4)nc2s1 | inconclusive: 13 µM [activator, single point] | –
Cc1[nH]n(-c2ccccc2)c(=O)c1C(=O)c1cccc(F)c1 | active: 23.1 µM | –
C/C(=N\NC(=O)c1ccc(N/N=C(\C)c2ccc(O)cc2)cc1)c1ccc(O)cc1 | – | inactive: 9.08%
O=C(C1=C[C@H](C2CC2)C[C@H](OCc2ccc(CO)cc2)O1)N1CCN(Cc2ccc3c(c2)OCO3)CC1 | – | inactive: -19.6%
Cc1ccc(S(=O)(=O)/N=C(/NNC(=O)c2cccc(Cl)c2)c2ccccc2)cc1 | inconclusive: 10.3 µM [activator, partial curve] | –
CCN1CCc2c(sc(-n3cccc3)c2C(CCC(C)C)NC(=O)NCCC(=O)OC)C1 (stereo not given) | inconclusive: 4.61 µM [activator, full curve, poor fit] | –
COc1ccc(-n2cc(-c3ccccc3)c3c(N4CCOCC4)ncnc32)cc1 | inconclusive: 29.1 µM [falling, single point] | –
Cc1ccccc1Cn1c(C)nc2ccccc21 | inconclusive: 25.9 µM [falling, single point] | –
CC[N+](CC)(CC)CCOc1ccc(/C=C/c2ccccc2)cc1 | active: 14.6 µM | –
COc1ccc(CN2CC(=O)N(c3ccccc3OC)C2=S)cc1OC | inconclusive: 29.1 µM [falling, single point] | –
CCc1cccc(C)c1NC(=O)C(NS(=O)(=O)c1ccc2c(c1)CCC(=O)N2)c1ccccc1 (stereo not given) | – | inactive: 1.54%
COc1ccc(C(=O)NCc2ccc(Cl)cc2)cc1S(=O)(=O)N1CCCC1 | – | inactive: -19.1%
COc1cc(NC(=O)c2cccc(COCC(F)(F)C(F)F)c2)cc(OC)c1OC | active: 9.2 µM | –
Cc1ccc(NS(=O)(=O)c2c(C)nc3sc(C)c(C)n3c2=O)cc1F | active: 20.6 µM | –
Cc1ccc(C)c(C(C)NC(=O)CC#N)c1 (stereo not given) | inconclusive: 7.31 µM [falling, partial curve, poor fit] | –
Cc1cc(C(=O)CN2C(=O)c3cccc(N)c3C2=O)c(C)n1Cc1cccs1 | inconclusive: 1.84 µM [activator, full curve] | –
CN(C(=O)COC(=O)c1ccccc1NC(=O)c1ccco1)C1CCS(=O)(=O)C1 (stereo not given) | – | inactive: 8.62%
CCN(CC)S(=O)(=O)c1cc(NC(=S)NC(=O)C2CCCC2)ccc1C | inconclusive: 5.17 µM [falling, full curve, poor fit] | –
CCOC(=O)c1cnc2ccc(OCC)cc2c1NCCc1ccc(OC)c(OC)c1 | active: 3.66 µM | –
CCCNC(=O)c1cc(-c2ccc3c(c2)OCO3)on1 | inconclusive: 7.31 µM [activator, partial curve] | –
COCCC(=O)Nc1c(-c2ccccc2)c2cc(Br)ccc2[nH]c1=O | inconclusive: 0.0206 µM [falling, full curve] | –

2 compounds picked at random from those above:
SMILES | Potency | activity change, negative = inhibition
CCOC(=O)C1(CCCc2ccccc2)CCN(S(=O)(=O)N(C)C)CC1 | inconclusive: 14.6 µM [falling, partial curve] | –
CCC(CO)Oc1cc(NCc2ccc(Cl)cc2Cl)c2ncn(C(C)C)c2c1 (stereo not given) | inconclusive: 18.4 µM [falling, partial curve] | –
